# Reference: patent US20210040221A1 (published 2021)
# Positions count from the first letter of the chain named. Results are given in words; binding and its absence hold for the method and conditions named. Some results given as binding are weak or reduced against the parent protein; the word gives no strength.
# T1: recombinant human CD25 his tagged (UniProt P01589 22-213)
# T1 chain: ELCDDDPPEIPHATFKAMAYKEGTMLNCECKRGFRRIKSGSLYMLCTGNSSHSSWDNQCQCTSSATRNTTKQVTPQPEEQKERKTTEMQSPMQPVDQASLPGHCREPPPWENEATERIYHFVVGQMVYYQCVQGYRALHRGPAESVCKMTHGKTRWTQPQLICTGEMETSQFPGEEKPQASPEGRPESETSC
# B1: Antibody 1 (antibody, V domains shown)
# VH: EVQLLESGGGLVQPGGSLRLSCAASGFTFSSYGMSWVRQAPGKGLELVSTINGYGDTTYYPDSVKGRFTISRDNSKNTLYLQMNSLRAEDTAVYYCARDRDYGNSYYYALDYWGQGTLVTVSS
# VL: EIVLTQSPGTLSLSPGERATLSCRASSSVSFMHWLQQKPGQAPRPLIYATSNLASGIPDRFSGSGSGTDYTLTISRLEPEDFAVYYCQQWSSNPPAFGQGTKLEIK
# B2: Antibody 2 (antibody, V domains shown)
# VH: B1 VH
# VL: B1 VL with E1Q, A42S
# B3: Antibody 3 (antibody, V domains shown)
# VH: B1 VH with S75A, Y95F
# VL: B1 VL
# B4: Antibody 4 (antibody, V domains shown)
# VH: B1 VH with S75A, Y95F
# VL: B1 VL with E1Q, A42S
# Legend:
# [1] = target: human CD25 (Uniprot record no. P01589), as synthetic peptides representing the human CD25 sequence (Pepscan arrays) (human) (UniProt P01589); assay: Pepscan peptide array ELISA
# [2] = target: T1, recombinant human CD25 his tagged; assay: Octet sequential binding, rhCD25 his tagged on Ni-NTA biosensors, first antibody
Binder,binding [1],binding [2]
B1,binds,–
B2,binds,binds
B3,binds,–
B4,binds,–
